Results as given in paper PMC10601247.
Results are given in words; binding and its absence hold for the method and conditions named. For some assays here: In cells and extracts the contact can be indirect. Some entries that bind do so weakly or less than the wild type. For some assays here: Sequences can lack the tags named with a protein.

Key:
[1] = molecular target: T1, flotillin-2 (endogenous, HeLa cells) (human (endogenous in HeLa)) (UniProt Q14254); experiment: co-IP; HeLa cells solubilized in 20 mM Tris, 150 mM NaCl, 1 mM EDTA, 1% Triton X-100, 5% glycerol, 2% octyl β-D-glucopyranoside pH 7.4; 5 μg goat anti-flotillin-2 antibodies on protein G Dynabeads, 4 °C overnight; nonimmune IgG as control; western blot with anti-EFR3A
T1 sequence: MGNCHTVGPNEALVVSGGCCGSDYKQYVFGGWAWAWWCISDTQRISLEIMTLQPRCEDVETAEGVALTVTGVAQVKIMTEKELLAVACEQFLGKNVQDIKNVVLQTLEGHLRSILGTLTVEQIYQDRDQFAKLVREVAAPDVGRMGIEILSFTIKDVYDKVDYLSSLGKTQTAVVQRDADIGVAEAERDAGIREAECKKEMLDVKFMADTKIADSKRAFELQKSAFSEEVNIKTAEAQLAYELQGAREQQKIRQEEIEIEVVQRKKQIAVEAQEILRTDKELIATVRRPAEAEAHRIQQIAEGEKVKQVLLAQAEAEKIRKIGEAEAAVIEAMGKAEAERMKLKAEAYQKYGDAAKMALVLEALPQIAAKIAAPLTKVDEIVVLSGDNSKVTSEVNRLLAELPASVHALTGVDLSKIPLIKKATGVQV

[2] = molecular target: T2, His-tagged recombinant flotillin-2 (UniProt Q14254); experiment: pull-down; recombinant flotillin-2 Sepharose incubated overnight at 4 °C with HeLa DRM fraction in octyl glucoside buffer; bound fraction probed by western blot with anti-EFR3A antibody; unconjugated resin as control; only the target purified
T2 sequence: T1 sequence

[3] = molecular target: T3, recombinant EFR3A (N-terminal 6X-histidine tag) (human) (UniProt Q14156); experiment: far-Western, overlay or dot blot; 20 μg purified recombinant EFR3A after SDS-PAGE on nitrocellulose, strips with bands > 70 kDa, blocked with 5% dry milk in TBS-T; incubated with increasing concentrations of recombinant flotillin-2 in TBS-T; detected with goat anti-flotillin-2 antibodies; both purified
T3 sequence: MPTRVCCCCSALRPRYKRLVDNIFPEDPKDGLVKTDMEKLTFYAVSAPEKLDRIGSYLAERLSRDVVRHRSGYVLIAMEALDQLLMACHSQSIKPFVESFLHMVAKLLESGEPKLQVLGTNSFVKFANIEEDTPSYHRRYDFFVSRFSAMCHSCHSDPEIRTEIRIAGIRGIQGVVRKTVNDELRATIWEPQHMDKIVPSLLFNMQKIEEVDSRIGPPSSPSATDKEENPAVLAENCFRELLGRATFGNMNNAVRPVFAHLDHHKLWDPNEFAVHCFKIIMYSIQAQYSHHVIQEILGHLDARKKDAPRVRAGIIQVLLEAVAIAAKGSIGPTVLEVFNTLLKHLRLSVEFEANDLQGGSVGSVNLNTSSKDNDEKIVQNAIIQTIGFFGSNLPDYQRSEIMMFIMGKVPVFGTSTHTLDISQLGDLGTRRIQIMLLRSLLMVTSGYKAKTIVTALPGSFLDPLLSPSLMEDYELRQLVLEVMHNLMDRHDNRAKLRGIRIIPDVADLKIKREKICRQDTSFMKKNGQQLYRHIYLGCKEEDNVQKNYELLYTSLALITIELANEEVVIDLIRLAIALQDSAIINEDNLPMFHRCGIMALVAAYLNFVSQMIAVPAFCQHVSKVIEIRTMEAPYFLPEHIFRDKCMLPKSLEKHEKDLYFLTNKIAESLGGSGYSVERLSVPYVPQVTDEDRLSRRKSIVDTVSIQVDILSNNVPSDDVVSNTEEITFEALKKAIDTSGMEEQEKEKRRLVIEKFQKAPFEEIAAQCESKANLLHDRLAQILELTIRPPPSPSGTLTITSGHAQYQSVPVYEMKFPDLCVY

[4] = molecular target: T2, His-tagged recombinant flotillin-2; experiment: pull-down; unpublished data: EFR3A of DRMs from other human cell lines pulled down on immobilized flotillin-2; only the target purified

B1: EFR3A (endogenous, HeLa cells) (protein, UniProt Q14156 1-821)
chain: T3 sequence
binding [1]: binds
binding [2]: binds

B2: His-tagged recombinant flotillin-2 (protein, UniProt Q14254 1-428)
chain: T1 sequence
binding [3]: binds

B3: EFR3A (endogenous, LNCaP cells) (protein, UniProt Q14156 1-821)
chain: T3 sequence
binding [4]: binds

B4: EFR3A (endogenous, PC-3 cells) (protein, UniProt Q14156 1-821)
chain: T3 sequence
binding [4]: binds
